Patent US20050069542A1 (Human Genome Sciences, published 2005)
Changes are numbered by the printed parent chain. No constants are given. Whether binding was seen depends on the method and setting. Some entries that bind do so weakly or less than the wild type. Each block holds one binder with its values, some of them ahead of it.

The chains behind the UniProt entries cited, without tags or fusion partners. Where a name states a change or a piece, a line headed by the entry shows the natural chain unless it says otherwise.
UniProt Q9HD89: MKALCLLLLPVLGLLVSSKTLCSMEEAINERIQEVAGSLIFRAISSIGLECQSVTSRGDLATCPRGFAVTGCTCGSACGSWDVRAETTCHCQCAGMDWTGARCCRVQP

How the values were obtained:
[1] = biological target: Flag-tagged recombinant human GMAD (human) (UniProt Q9HD89); experiment: phage ELISA
[2] = biological target: Flag-tagged recombinant human GMAD (human) (UniProt Q9HD89); experiment: phage display selection of scFvs

binding [1]: binds
binding [2]: binds
B1: GMCC107 (scFv)
scFv: QVQLVQSGAEVKKPGASVKVSCRTSGYTFTDHSMHWVRQAPGQRFEWMGWIGADSGSTQYSRNFQGRLTIGRDTSASTVYMELTSLRSEDTAVYYCARVGGGQGWYSGMDVWGRGTLVTVSSGGGGSGGGGSGGGGSAQAVLTQPSSVSGAPGQRVTISCTGSSSNIGASYDVHWYQQLPGTAPKLLIYNNNNRPSGVPDRFSGSRSGTSASLAITGLQAEDEADYYCHSYDSNLSGDVFGSGTKLTVLG

binding [1]: binds
binding [2]: binds
B2: GMBC662 (scFv)
scFv: GVQLVQSGAEVKKPGSSVKVSCKASGGTFSSYTISWVRQAPGQGLEWMGRIIPILGIANYAQKFQGRVTITADKSTSTAYMELSSLRSEDTAVYYCAREKLRDFQHWGQGTLVTVSSGGGGSGGGGSGGGGSQSVLTQPASVSGSPGQSITISCTGTSSDVGGYNYVSWYQQHPGKAPKLMIYEGSKRPSGISNRFSGSKSGNTASLTISRLQAEDEADYYCSSYTTRSTRVFGGGTKLTVLG

binding [1]: binds
binding [2]: binds
B3: GMBC652 (scFv)
scFv: GVQLVQSGGVVVKPGGSLRLSCAASGFTFSDAWMNWVRQAPGKGLEWVGRIKSKGSGGTTDYAAPVKGRFTISRDDSENTLYLQMNSLKTEDTAVYYCTWDHSYYYDMAVWGRGTMVTASSGGGGSGGGGSGGGGSQSVLTQPASVSGSPGQSITISCTGTSSDVGGYNYVSWYQQHPGKAPKFMIYDVSKRPSGVSNRFSGSKSGNTASLTISGVQAEDEADYYCSSYTSASTVIFGGGTKLTVLG

binding [1]: binds
binding [2]: binds
B4: GMCC101 (scFv)
scFv: EVQLVQSGAEVKKPGSSVKVSCKASGGTFRTYAITWVRQAPGQGLEWMGGIIPISATANYAQKFQGRVTITADESMSTAYMELSSLRSEDTAVYYCARDREPHYFDNWGRGTMVTVSSGGGGSGGGGSGGGGSALPVLTQPPSVSEAPRQGVTISCSGSSSNIGNNAVSWYQQLPGQAPKLLIYYDDLLPSGVSDRFSASKSGTSASLAISGLQSEDEADYYCAAWDDSLNGVIFGGGTQLTVLS

binding [1]: binds
binding [2]: binds
B5: GMCC105 (scFv)
scFv: QVQLVQSGGGVVQPGRSLRLSCTASGFNLGSHGMHWVRQAPGKGLEWVAVIGFDGTTKYYVDSVKGRFTISRDNSRNTLSLQMNSLRAEDTAVYYCVREDYYYDSSGYYFDYWGRGTLVTVSSGGGGSGGGGSGGGGSALSSELTQDPFVSVALGQTVRIACRGDSLRDSYASWYQQKPGQAPRLLVYGNNLRPSGIPGRFSGSSSGDTASLSITETQAGDEADYYCSSRGNSTSRLYVFGTGTKLTVLG

binding [1]: binds
binding [2]: binds
B6: GMCC108 (scFv)
scFv: EVQLVQSGAEVKEPGASVTVSCKASGYTFISYHMHWVRQAPGQGLEWMGIINPSGGDTTYAQKFQGRVTMTRDTSTSTVYMELRSLRFEDTARYYCARDLKFYDFRSGKYQDYGMDVWGQGTLVTVSSGGGGSGGGGSGGGGSAQSVLTQPPSLSVAPGQTASITCGGNDIGTKSVHWYQLKPGQAPVLVVYDNRDRPSGIPERFSGSNSGNTATLTISRVEGGDEADYYCQVWDSSIDHSEYVFGTGTKLTVLG

binding [1]: binds
binding [2]: binds
B7: GMCC110 (scFv)
scFv: QVQLQESGPGLVKPSQTLSLTCTVSGASISSGGYRWIWIRQHPGQGLEWIGDIHYSGSTQYNPSLKSRVALTLDRSKNQFSLQLSSVTAADTAVYYCARDPRGHTYGYGYYFDYWGKGTLVTVSSGGGGSGGGGSGGGGSALSSELTQDPDVSVALGQTVTITCQGDRLRRYYASWYQQKPGQAPVLVIFRKNNRPSGIPDRFSGSSSGDTASLTITGAQAEDEADYYCNSRDTSGTLSFGGGTQLTVLS

binding [1]: binds
binding [2]: binds
B8: GMBC669 (scFv)
scFv: QVQLVESGGALVKPGGSLRLSCAASGFTFSDAWMNWVRQAPGKGLEWVGRIKSKGSGGTIDYAAPVKDRFTISRDDSKNTLYLQMNSLKTEDTALYYCTWDWDFYYGMNVWGQGTLVTVSSGGGGSGGGGSGGGGSQSVLTQPPSASGSPGQSVTISCTGTSSDVGGYNYVSWYQQHPGKAPKFMIYDVSKRPSGVSNRFSGSKSGNTASLTISGVQAEDEADYYCSSYTSASTVIFGGGTKLTVLG

binding [1]: binds
binding [2]: binds
B9: GMBC689 (scFv)
scFv: B8 scFv with A10G, I236V

binding [1]: binds
binding [2]: binds
B10: GMBC678 (scFv)
scFv: B8 scFv with Q1E, A10G

binding [1]: binds
binding [2]: binds
B11: GMBC730 (scFv)
scFv: QVQLVESGGDSVKPGGSLRLSCAGSGFTFSDAWMNWVRQAPGKGLEWVGRMKSKGSGGTRDYAAPVNGRFTISRDDSKNTLYLQMNSLNTEDTGVYYCTWDWDFYYGMDVWGKGTTVTVSSGGGGSGGGGSGGGGSQSVLTQPASVSGSPGQSITISCTGTSSDVGGYNYVSWYQQHPGKAPKLMIYEGSKRPSGVSNRFSGSKSGNTASLTISGLQAEDEADYYCSSYTTRSTRVFGGGTKLTVLG

binding [1]: binds
binding [2]: binds
B12: GMBC687 (scFv)
scFv: QVQLVQSGAEVKKPGSSVKVSCKAPGDTFSNYIFNWVRQAPGQGLEWMGGIIPKFGTVNDAHKFQDRVTIAADESTNTASMELSSLTSEDTAVYYCACEPIPKDYGDVNGLEIWGKGTMVTVSSGGGGSGGGGSGGGGSDIQMTQSPSTLSASIGDRVTITCRASEGIYHWLAWYQQKPGKAPKLLIYKASSLASGAPSRFSGSGSGTDFTLTISSLQPDDFATYYCQQYSNYPLTFGGGTKLEIKR

binding [1]: binds
binding [2]: binds
B13: GMBC642 (scFv)
scFv: QVQLQQSGAEVKKPGASVKVSCKASGYTFTIHYMHWVRQAPGQGLEWMGIINPGDGSTSYAQNFQGRVTMTRDTSTSTVYMELSSLRSEDTAVYYCARAGRTVTSHFDYWGRGTLATVSSGGGGSGGGGSGGGGSSELTQDPAVSVALGQTVRITCQGDSLRSYYASWYQQKPGQAPVLVIYGKNNRPSGIPDRFSGSSSGNTASLTITGAQAEDEADYYCNSRDSSGNHVVFGGGTKLTVLG

binding [1]: binds
binding [2]: binds
B14: GMBC691 (scFv)
scFv: EVQLVQSGAEVKKPGASMKVSCKTSGDTFNGFYVHWVRQAPGQGLEWMGRINPNGGGTNYAQKFQGRVTMTRDTSMNTAYMELRSLRSDDTAVYYCARDLFYDFWSDYYRNDQYYYMDVWGRGTLVTVSSGGGGSGGGGSGGGGSSELTQDPAVSVALGQTVRITCQGDSLRSYYASWYQQKPGQAPVLVIYGKNNRPSGIPDRFSGSSSGNTASLTITGAQAEDEADYYCNSRDSSGNHVVFGGGTKLTVLG

binding [1]: binds
binding [2]: binds
B15: GMBC655 (scFv)
scFv: EVQLVESGGGLVKPGGSLRLSCAASGFTFSSYGMSWIRQAPGKGQEWVSAISGSGGSAYYADSVKGRFTISRDNSKNTLYLQMNSLRAEDTAVYYCAKAYSSEDYWGRGTMVTVSSGGGGSGGGGSGGGGSNIQMTQSPSFLSASVGDRVTITCRASQGINNYLAWYQQKPGRAPKLLIYAASSLQSGVPSRFSGSGSGTDFTLTISSLQPDDFATYYCQQYSNYPLTFGGGTKLEIKR

binding [1]: binds
binding [2]: binds
B16: GMBC696 (scFv)
scFv: EVQLVQSRAEVKKPGASVKVSCKTSGYTFNGYYIHWVRQAPGQGLEWMGWIDPINSVTNYAQNFQGRVTMTRDTSINTAYMELSRLTSDDTAVYYCARARVSTILQYWGQGTLVTVSSGGGGSGGGGSGGGGSSELTQDPAVSVALGQTVRITCQGDSLRSYYASWYQQKPGQAPVLVIYGKNNRPSGIPDRFSGSSSGNTASLTITGAQAEDEADYYCNSRDSSGNHVVFGGGTKLTVLG

binding [1]: binds
binding [2]: binds
B17: GMBC681 (scFv)
scFv: QVQLVQSGGGVVQPGGSLRLSCAASGFTFSSYGMHWVRQAPGKGLEWVAFIRYDGSNKYYADSVKGRFTISRDNSKNTLYLQMNSLRAEDTAVYYCAKGGTGYFDLWGRGTLVTVSSGGGGSGGGGSGGGGSDIQMTQSPSTLSASIGDRVTITCRASEGIYHWLAWYQQKPGKAPKLLIYKASSLASGAPSRFSGSGSGTDFTLTISSLQPDDFATYYCQQYSNYPLTFGGGTKLEIKR

binding [1]: binds
binding [2]: binds
B18: GMBC673 (scFv)
scFv: EVQLVESGGGLVQTGGSLRLSCAASGFPIGSHWMSWVRQSPGKGLEWVASIKQDGREKHFVDSVKGRFGISRDNAKDSLYLQMNSLRIEDTAVYYCARETYGGYYYYFMDVWGRGTLVTVSSGGGGSGGGGSGGGGSSELTQDPAVSVALGQTVRITCQGDSLRSYYASWYQQKPGQAPVLVIYGKNNRPSGIPDRFSGSSSGNTASLTITGAQAEDEADYYCQTWGPGIRVFGGGTKLTVLG

binding [1]: binds
binding [2]: binds
B19: GMBC646 (scFv)
scFv: GVQLVQSGAEVKKPGASVKVSCKASGYTFTSYYIHWVRQAPGQGLEWMGIINPSGGTTSYAQKFQGRVTMTRDTSTSTVYMELSSLRSEDTAMYYCARERFLRGMDVWGRGTMVTVSSGGGGSGGGGSGGGGSDIVMTQSPSTLSASVGDRVTITCRASQGISSWLAWYQQKPGRAPKVLIYKASTLESGVPSRFSGSGSGTDFTLTISSLQPEDFATYYCQQSYSTPWTFGQGTKLEIKR
